Results on two molecules are retold here after patent US20220323598A1 (NATIONAL UNIVERSITY CORPORATION TOKAI NATIONAL HIGHER …, published 2022).

Protein sequences, listed by entry. Tags and fused reporters are not part of them. Residues count along the entry.
UniProt Q01973, residues 30-937: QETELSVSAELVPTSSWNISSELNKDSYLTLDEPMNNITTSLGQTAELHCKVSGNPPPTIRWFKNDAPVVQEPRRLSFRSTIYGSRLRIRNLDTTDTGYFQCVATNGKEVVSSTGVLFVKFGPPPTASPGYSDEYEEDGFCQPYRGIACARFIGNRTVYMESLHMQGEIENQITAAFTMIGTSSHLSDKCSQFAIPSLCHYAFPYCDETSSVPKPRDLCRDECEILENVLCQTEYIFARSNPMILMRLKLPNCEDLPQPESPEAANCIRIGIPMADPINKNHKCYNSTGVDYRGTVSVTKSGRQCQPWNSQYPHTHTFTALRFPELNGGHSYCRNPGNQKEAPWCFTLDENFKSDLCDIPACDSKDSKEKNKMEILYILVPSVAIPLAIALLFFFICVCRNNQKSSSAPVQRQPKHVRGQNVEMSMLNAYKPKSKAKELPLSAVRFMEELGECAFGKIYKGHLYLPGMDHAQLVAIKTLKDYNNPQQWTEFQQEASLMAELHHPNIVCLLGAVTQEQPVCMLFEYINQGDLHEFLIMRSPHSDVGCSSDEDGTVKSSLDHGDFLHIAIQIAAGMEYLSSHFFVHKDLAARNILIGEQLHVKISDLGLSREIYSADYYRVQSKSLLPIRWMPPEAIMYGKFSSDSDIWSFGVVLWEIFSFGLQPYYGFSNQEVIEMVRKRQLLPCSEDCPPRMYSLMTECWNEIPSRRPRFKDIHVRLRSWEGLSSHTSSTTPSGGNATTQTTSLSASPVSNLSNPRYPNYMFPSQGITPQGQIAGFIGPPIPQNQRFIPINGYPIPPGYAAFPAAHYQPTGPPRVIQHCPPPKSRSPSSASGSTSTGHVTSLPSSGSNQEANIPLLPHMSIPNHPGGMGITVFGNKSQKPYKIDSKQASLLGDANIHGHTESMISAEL

In assay [1] the target is human ROR1 protein (GenBank accession No. NP_005003.2) (human) (UniProt Q01973). The assay is described as follows: flow cytometry, Alexa Fluor 488 labeled antibody at 1 µg/ml on ROR1 high (NCI-H1975, PC-9) and ROR1 low (A427, NCI-H460) expressing cell lines.
Assay [2] shares this target. As to the kind of experiment: flow cytometry on NCI-H358 cells, relative affinity.

Results are given in words; binding and its absence hold for the method and conditions named. Some entries that bind do so weakly or less than the wild type.

B1: chimeric antibody M4 (antibody, human IgG1, V domains shown)
VH: EVQLVESGGGLVKPGGSLKLSCAASGFTFSSYAMSWGRQTPEKRLEWVAAINSKGGSTYYPDTVKDRFTISRDNAKNTLYLQMSSLRSEDTALYYCARHDERIDYAMDYWGQGTSVTVSS
VL: DIKMTQSPSSMYASLGERVTITCKASQDINSYLSWFQQKPGKSPKTLIYRANRLVDGVPSRFSGSGSGQDYSLTISSLEYEDMGIYYCLQYDEFPYTFGSGTKLEIK
For B1, the binding result in assay [1] was “binds”.

B2: 2AM_1M17 (antibody, mouse IgG1, V domains shown)
VH: B1 VH
VL: B1 VL
For the molecule B2, the binding result in assay [2] was “binds”.
